# Results from the supplement of paper PMC8728848.
# The other results are listed elsewhere or left out.
# B1: SspB A3vp1 (Streptococcus gordonii), Q54186 (protein)
# chain: MTNEADYQAKLAAYQTELARVQKANADAKATYEKAVEDNKAKNAAIKAENEEIKQRNAVAKTDYEAKLAKYEADLAKYKKEFAAYTAALAEAESKKKQDGYLSEPRSQSLNFKSEPNAIRTIDSSVHQYGQQELDALVKSWGISPTNPDRKKSRAYSYFNAINSNNTYAKLVLEKDKPVDVTYTGLKNSSFNGKKISKVVYTYTLKETGFNDGTKMTMFASSDPTVTAWYNDYFTSTNINVKVKFYDEEGQLMNLTGGLVNFSSLNRGNGSGAIDKDAIESVRNFNGRYIPISGSSIKIHENNSAYADSSNAEKSLGARWNTSEWDTTSSPNNWYGAIVGEITQSEISFNMASSKSGNIWFAFNSNINAIGVPTKPVAPTAPTQPMYETEKPLEPAPVAPSYENEPTPPVKTPDQPEPSKPAAALEHHHHHH
# What was measured:
# Test in all cases: glycan array binding signal (z-score within array); higher = stronger binding
# Conditions in all cases: glycan notation: IUPAC condensed, linker removed
# [1] = molecular target: Neu5Ac(a2-6)Gal(b1-4)GlcNAc(b1-6)GalNAc
# How it was run: (§1)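 Glycan array data were curated from 3228 arrays in the Consortium for Functional Glycomics database and kept only where the protein sequence was available. Glycan names were converted to IUPAC-condensed notation, and columns mapping to the same glycan were averaged. The binding signal is a within-array Z-score, averaged across arrays of the same protein sequence at different concentrations or buffers and across linkers. Negative Z-scores can be read as non-binding.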
# [2] = molecular target: Neu5Ac(a2-6)Gal(b1-4)GlcNAc(b1-6)[Gal(b1-3)GlcNAc(b1-3)]Gal(b1-4)Glc
# How it was run: as §1
# [3] = molecular target: Neu5Ac(a2-6)Gal(b1-4)GlcNAc(b1-6)[Gal(b1-3)]GalNAc
# How it was run: as §1
# [4] = molecular target: Neu5Ac(a2-6)Gal(b1-4)GlcNAc6S
# How it was run: as §1
# Neu5Ac(a2-6)GalNAc = molecular target: Neu5Ac(a2-6)GalNAc
# How it was run: as §1
# [5] = molecular target: Neu5Ac(a2-6)GalNAc(b1-4)GlcNAc
# How it was run: as §1
# [6] = molecular target: Neu5Ac(a2-6)GalNAc(b1-4)GlcNAc6S
# How it was run: as §1
# [7] = molecular target: Neu5Ac(a2-6)GlcNAc(b1-4)GlcNAc
# How it was run: as §1
# [8] = molecular target: Neu5Ac(a2-6)GlcNAc(b1-4)GlcNAc(b1-4)GlcNAc
# How it was run: as §1
# Neu5Ac(a2-8)Neu5Ac = molecular target: Neu5Ac(a2-8)Neu5Ac
# How it was run: as §1
# [9] = molecular target: Neu5Ac(a2-8)Neu5Ac(a2-3)Gal(b1-3)GalNAc(b1-4)[Neu5Ac(a2-3)]Gal(b1-4)Glc
# How it was run: as §1
# [10] = molecular target: Neu5Ac(a2-8)Neu5Ac(a2-3)Gal(b1-3)GalNAc(b1-4)[Neu5Ac(a2-8)Neu5Ac(a2-3)]Gal(b1-4)Glc
# How it was run: as §1
# [11] = molecular target: Neu5Ac(a2-8)Neu5Ac(a2-3)Gal(b1-4)Glc
# How it was run: as §1
# [12] = molecular target: Neu5Ac(a2-8)Neu5Ac(a2-3)Gal(b1-4)GlcNAc
# How it was run: as §1
# [13] = molecular target: Neu5Ac(a2-8)Neu5Ac(a2-3)[Gal(b1-3)GalNAc(b1-4)]Gal(b1-4)Glc
# How it was run: as §1
# [14] = molecular target: Neu5Ac(a2-8)Neu5Ac(a2-3)[GalNAc(b1-4)]Gal(b1-4)Glc
# How it was run: as §1
# [15] = molecular target: Neu5Ac(a2-8)Neu5Ac(a2-8)Neu5Ac
# How it was run: as §1
# [16] = molecular target: Neu5Ac(a2-8)Neu5Ac(a2-8)Neu5Ac(a2-3)Gal(b1-4)Glc
# How it was run: as §1
# [17] = molecular target: Neu5Ac(a2-8)Neu5Ac(a2-8)Neu5Ac(a2-3)[Gal(b1-3)GalNAc(b1-4)]Gal(b1-4)Glc
# How it was run: as §1
# [18] = molecular target: Neu5Ac(a2-8)Neu5Ac(a2-8)Neu5Ac(a2-3)[GalNAc(b1-4)]Gal(b1-4)Glc
# How it was run: as §1
# [19] = molecular target: Neu5Ac(a2-8)Neu5Ac(a2-8)Neu5Ac(a2-8)Neu5Ac(a2-3)[GalNAc(b1-4)]Gal(b1-4)Glc
# How it was run: as §1
# [20] = molecular target: Neu5Ac(a2-8)Neu5Gc(a2-3)Gal(b1-4)GlcNAc
# How it was run: as §1
# [21] = molecular target: Neu5Ac(b2-6)Gal(b1-4)GlcNAc
# How it was run: as §1
# Neu5Ac(b2-6)GalNAc = molecular target: Neu5Ac(b2-6)GalNAc
# How it was run: as §1
# [22] = molecular target: Neu5Ac9Ac(a2-3)Gal(b1-3)GlcNAc
# How it was run: as §1
# [23] = molecular target: Neu5Ac9Ac(a2-3)Gal(b1-4)GlcNAc
# How it was run: as §1
# [24] = molecular target: Neu5Ac9Ac(a2-6)Gal(b1-4)GlcNAc
# How it was run: as §1
# [25] = molecular target: Neu5Gc(a2-3)Gal(b1-3)GlcNAc
# How it was run: as §1
# [26] = molecular target: Neu5Gc(a2-3)Gal(b1-3)[Fuc(a1-4)]GlcNAc
# How it was run: as §1
# Neu5Gc(a2-3)Gal(b1-4)Glc = molecular target: Neu5Gc(a2-3)Gal(b1-4)Glc
# How it was run: as §1
# [27] = molecular target: Neu5Gc(a2-3)Gal(b1-4)GlcNAc
# How it was run: as §1
# [28] = molecular target: Neu5Gc(a2-3)Gal(b1-4)GlcNAc(b1-3)Gal(b1-4)GlcNAc(b1-2)Man(a1-3)[Neu5Gc(a2-3)Gal(b1-4)GlcNAc(b1-3)Gal(b1-4)GlcNAc(b1-2)Man(a1-6)]Man(b1-4)GlcNAc(b1-4)GlcNAc
# How it was run: as §1
# [29] = molecular target: Neu5Gc(a2-3)Gal(b1-4)[Fuc(a1-3)]GlcNAc
# How it was run: as §1
# [30] = molecular target: Neu5Gc(a2-6)Gal(b1-4)GlcNAc
# How it was run: as §1
# Neu5Gc(a2-6)GalNAc = molecular target: Neu5Gc(a2-6)GalNAc
# How it was run: as §1
# [31] = molecular target: Neu5Gc(a2-8)Neu5Ac(a2-3)Gal(b1-4)GlcNAc
# How it was run: as §1
# [32] = molecular target: Neu5Gc(a2-8)Neu5Gc(a2-3)Gal(b1-4)GlcNAc
# How it was run: as §1
# [33] = molecular target: Neu5Gc(a2-8)Neu5Gc(a2-3)Gal(b1-4)GlcNAc(b1-3)Gal(b1-4)GlcNAc
# How it was run: as §1
binder,measurement,setting,value
B1,glycan array binding signal (z-score),[1],1.8
same,glycan array binding signal (z-score),[2],-0.143
same,glycan array binding signal (z-score),[3],2.82
same,glycan array binding signal (z-score),[4],-0.165
same,glycan array binding signal (z-score),Neu5Ac(a2-6)GalNAc,-1.27
same,glycan array binding signal (z-score),[5],-1.1
same,glycan array binding signal (z-score),[6],-0.674
same,glycan array binding signal (z-score),[7],-0.862
same,glycan array binding signal (z-score),[8],-0.788
same,glycan array binding signal (z-score),Neu5Ac(a2-8)Neu5Ac,-0.582
same,glycan array binding signal (z-score),[9],-0.542
same,glycan array binding signal (z-score),[10],-0.804
same,glycan array binding signal (z-score),[11],-0.601
same,glycan array binding signal (z-score),[12],-1.25
same,glycan array binding signal (z-score),[13],-0.44
same,glycan array binding signal (z-score),[14],-0.166
same,glycan array binding signal (z-score),[15],-1.14
same,glycan array binding signal (z-score),[16],-0.842
same,glycan array binding signal (z-score),[17],-0.82
same,glycan array binding signal (z-score),[18],-0.524
same,glycan array binding signal (z-score),[19],2.18
same,glycan array binding signal (z-score),[20],-0.152
same,glycan array binding signal (z-score),[21],-0.329
same,glycan array binding signal (z-score),Neu5Ac(b2-6)GalNAc,-0.184
same,glycan array binding signal (z-score),[22],-0.766
same,glycan array binding signal (z-score),[23],-1.39
same,glycan array binding signal (z-score),[24],-0.18
same,glycan array binding signal (z-score),[25],-0.928
same,glycan array binding signal (z-score),[26],-0.907
same,glycan array binding signal (z-score),Neu5Gc(a2-3)Gal(b1-4)Glc,-0.538
same,glycan array binding signal (z-score),[27],-0.513
same,glycan array binding signal (z-score),[28],0.951
same,glycan array binding signal (z-score),[29],0.014
same,glycan array binding signal (z-score),[30],0.556
same,glycan array binding signal (z-score),Neu5Gc(a2-6)GalNAc,0.207
same,glycan array binding signal (z-score),[31],-0.769
same,glycan array binding signal (z-score),[32],-0.72
same,glycan array binding signal (z-score),[33],-1.08

# A different layout for some results above:
binder	measurement	setting	value
B1	glycan array binding signal (z-score)	[11]	-0.601
same	glycan array binding signal (z-score)	[12]	-1.25
